Measurements reported in PubChem BioAssay AID504786 (Drosophila RNAi Screening Center, 2011)

Test: 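Fly genes required for HIF-dependent transcription when hypoxia is mimicked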 (primary screen)
System: Drosophila S2 cells with a stable HIF luciferase reporter
Reagents: long dsRNA against Drosophila genes, about 0.2 µg dsRNA per well of a 384-well plate
Time to read-out: three days of knock-down, then 20 h of DFO before reading
Conditions: desferrioxamine (DFO) at 100 µM, an iron chelator that mimics hypoxia, for 20 h
Measured: 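Firefly luciferase driven by the mouse ldh-a hypoxia-response element, measured after 20 h of 100 µM DFO; z-scores per plate, higher means more signal lost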
Direction: z-score: higher = stronger loss of HIF reporter signal
The screen tested about 21,000 reagents; below is a random part of those that have a named target and a result. 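Primary screen; positive scores mean lost reporter signal, so the sign may be inverted from the usual convention.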 The numbers tell different reagents against one gene apart. Names joined by + are all predicted targets of the reagent. Further read-outs or replicates are left out here. Reagent sequences are not shown.

Gene | reagent no. | z-score, replicate 1 | z-score, replicate 2
Su(z)12 | 1 | -0.1 | -0.2
Chi | 1 | -0.4 | -0.8
Phs | 1 | -0.1 | 0.1
Grl36b | 1 | 0 | 0.2
CG34148 + P5CDh2 | 1 | -0.4 | -0.3
Arc2 | 1 | 0 | 0.2
eIF3a | 1 | 7.4 | 5.4
Prx6c + CG12896 + Prx6b | 1 | -0.3 | -0.2
Aasdh | 1 | -0.3 | -0.5
Atg10 | 1 | -0.2 | 0.3
CG14492 | 1 | -0.3 | -0.1
Gen | 1 | -0.3 | -0.3
CG17075 | 1 | -0.3 | -0.4
SERCA | 1 | -0.5 | -1.6
CG1090 | 1 | -0.2 | -0.5
CrebA | 1 | -0.4 | -0.6
thr | 1 | -0.3 | -0.2
Txl | 1 | -0.2 | -0.1
CG7430 | 1 | -0.2 | -0.6
CG42540 | 1 | -0.1 | 3.8
CG42540 | 2 | -0.4 | -0.6
CG42540 | 3 | 1.9 | 1.3
CG8343 | 1 | -0.2 | -0.3
Jon44E | 1 | -0.3 | -0.3
Cyp6a17 | 1 | -0.1 | -0.2
Mtmr6 | 1 | -0.5 | -0.8
gny | 1 | -0.2 | -0.6
CG8728 | 1 | -0.2 | 0.2
I-t | 1 | -0.3 | -0.1
CG15034 | 1 | -0.2 | -0.4
CG42615 | 1 | -0.3 | 0.1
t-Grip84 | 1 | -0.2 | 0.4
Atg9 | 1 | -0.3 | -0.5
CG14180 (retired record) | 1 | 3.9 | 4
Naxe | 1 | -0.3 | -0.8
ci | 1 | -0.3 | -0.6
dlg1 | 1 | 0.7 | 1.2
dlg1 | 2 | -0.1 | -0.4
dlg1 | 3 | -0.4 | -0.4
dlg1 | 4 | -0.2 | -0.4
Khc-73 | 1 | -0.1 | 0.2
mtsh | 1 | -0.4 | -0.6
CG2187 | 1 | -0.3 | 0
Hibch | 1 | 0.9 | 0.5
CG12934 | 1 | -0.2 | -0.4
ppk25 | 1 | -0.4 | -0.2
Cul6 | 1 | -0.1 | 0
CG13218 | 1 | -0.1 | 0.1
CG15387 | 1 | -0.3 | -0.3
Veneno | 1 | -0.3 | -0.3
AQP | 1 | -0.2 | -0.1
Scgbeta | 1 | -0.2 | -0.4
CG9289 | 1 | -0.4 | -0.2
Obp69a | 1 | -0.1 | 0.1
FASN1 | 1 | 2.6 | 2
CG7332 | 1 | -0.3 | -0.4
CG18179 | 1 | -0.2 | -0.3
CycH | 1 | -0.3 | -0.6
fs(1)Yb | 1 | -0.3 | -0.9
Pcp | 1 | -0.4 | -0.7
CG7126 | 1 | -0.4 | -0.3
Sgsh | 1 | 0.1 | 0.2
Ptpmeg | 1 | -0.2 | -0.1
CG14100 | 1 | -0.1 | 0
CG8620 | 1 | -0.5 | 0.9
salt | 1 | -0.2 | -0.3
Tom7 | 1 | -0.2 | 0
Tom7 | 2 | -0.3 | -0.2
Caf1-105 | 1 | -0.4 | -0.4
CG43996 | 1 | -0.3 | -0.2
CG43996 | 2 | -0.3 | -0.5
Eglp4 | 1 | -0.2 | -0.4
COX1 (retired record) | 1 | -0.3 | -0.4
CG42565 | 1 | -0.4 | -0.2
CG30103 | 1 | -0.3 | 0
bab1 | 1 | -0.4 | -0.3
bab1 | 2 | 0.1 | 0.4
CG15332 | 1 | -0.3 | -0.6
sff | 1 | -0.2 | -0.4
Pig1 | 1 | 0.8 | 0.3
Cyp6a16Psi (retired record) | 1 | -0.1 | 0
kibra | 1 | -0.8 | -1.4
kibra | 2 | 3.6 | 4.7

Looked up above:
For “z-score, replicate 1”, CG42540 #3 shows 1.9
For “z-score, replicate 2”, CG2187 reads 0
Entry of dlg1 #2 under “z-score, replicate 1”: -0.1
Under “z-score, replicate 2”, mtsh has -0.6
ppk25, z-score, replicate 2 → -0.2
CG34148 + P5CDh2, z-score, replicate 1 → -0.4
